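Luminescence from an EWS-FLI1 target-promoter (NR0B1) reporter, set against a CMV-promoter reporter, two days after silencing single genes in TC32 Ewing sarcoma cells.
Each siRNA was applied at 20 nM.
A z-score of the log NR0B1-over-CMV signal, less the median of siRNAs with the same seed; more negative means a stronger specific loss of the NR0B1 reporter.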

The strongest results of the screen are mostly left out here.
Sequences are the guide (antisense) strand, without overhang.

Sequence,target gene,seed-corrected z-score
UGGGUAAAAACAUACGAAG,SLC35F5,-0.2216
UUUCCUGUCAUAGCGAGGG,CNGB1,-0.5423
UCUUGUCUAAAAUCCUCUG,RBM48,-1.134
UCCGUUUCAAUUCAUUAGC,MYO1D,-1.637
UUAGCAUAGAGGUCCUUCC,ACTA2,0.8214
ACACGUUCAACCUCUCUAC,FPR3,-0.2971
UCUAUUAUAAAGCUUGCUG,L3HYPDH,0.2429
UGUCCUACAUUAUUCUUCC,DEFB125,-0.6297
UUUUACUCCAUUUCCCAUC,GLOD4,-0.8673
UUCUGGGUUGCAUACAUCC,SLC18A1,0.6816
UGACUGGAUACCAUUCUUC,FAM19A3,0.04174
UUUGUAACAUAAACAACCC,MNDA,-0.1621
UACAGGGCGAAAAUGAGCC,CHP2,1.201
UCGCAAUCUAUUGCUAUCC,PHF20L1,0.03861
UUAGGUUUUCGUUUCCUGG,GATA6,0.07643
UAUGACUCCAGAUCAAAGC,ZMIZ1,0.1586
UAAUUUGUCACCGGCAUUC,NSMCE4A,-1.193
UUGGUAAUGAGCCCGCAUG,SLC35B1,0.9828
UUUGGUGCUUCCUUGGACC,EIF2AK4,-1.951
UGCCGUUUGUGCGUAAUCC,SLC16A12,-0.1449
UCAACAGGAAUAGCUAUGC,TSC22D2,0.1818
UCCAGAAUUUCUGAGAUGC,TESPA1,0.9082
UGACCUCUCGGAUUACACC,ZCCHC7,0.1414
GCAGUGCCUUCAAUCAUCG,CCDC85B,1.507
AAUGUCACCGACAAAGGCC,NPTXR,-0.4203
UUCAGCAUAUCUUUCAGCC,ROM1,0.06206
UUCUCAUAUAGCUUCCUGG,TMPO,-0.5745
AUACAUGGAACCUCGAUUG,PKP1,-0.04383
UUUGUUAAGACGGUCAUCU,HDDC2,-0.04954
UCUCUUUCAUGUUAGCUAC,SIX4,0.276
AUGGUACUCAGCCCACUUG,PHPT1,0.3712
UAGAUUAGCAGAGUCACCC,IL1RAPL1,1.625
UUUUCUGUGACGAAGUUGU,AMBP,0.5547
UACUUUAUCUUUCCGCUUG,ADARB2,0.04798
UCAUCGAGCAUCUUCAGUG,MOSPD2,-1.045
AAGGCGAUGAUCACAGUCC,TMEM75,-0.8545
UGGUUUUCGAAGUGCUCCC,C8orf44,0.09826
UUAGGGUUGAGAUCACUCC,DUOX2,0.1219
AGAUUAUCCACUAUCUUCU,PPCS,0.3848
UUCCCAUAAACUUAGAUGC,CWF19L2,-0.7624
UCUAUGUACAGGAGGAUCU,CYP4F3,-0.4238
UACCUUCCCUCGGAUAUUC,UBN1,0.1018
UCAGGAUCAGCAUGGAAGC,SCAP,1.324
UCAGAGACAUAAUCUUUGC,LOC729856,-0.3372
AAAGGUAAGCUUCUCCCGC,DPP3,0.2397
UAGAUUAGUUCCUCUGUCC,ARHGEF5,0.727
UCCGAUAAUAGUCACCAGC,SLC24A4,-0.06297
UAAAGGACGCAGGAAUGCC,HRASLS,-0.3027
AGCAUACUGAGGAAUAGCC,EMSY,-0.101
UAUUAAAUUGGUCUCUAGC,CRISP1,1.386
UUUUUCAUAGCUGAUCAUC,ZNF780A,0.7631
UGAGAGGUAGAGCUUAUCC,PLIN2,0.2684
UUUGCUCCCUUGAAAAUCU,EWSR1,0.9503
AUAGGGUUUAUCUAGAUGG,SH2D4A,0.3762
UAUAUGUGAUUGAAAAGGC,ATP6V0A4,0.5178
UUUGGUAAUUUCACUGUCG,MAGOH,-0.1982

Repeated from the top, 5 entries:

Sequence,target gene,seed-corrected z-score
UGGGUAAAAACAUACGAAG,SLC35F5,-0.2216
UUUCCUGUCAUAGCGAGGG,CNGB1,-0.5423
UCUUGUCUAAAAUCCUCUG,RBM48,-1.134
UCCGUUUCAAUUCAUUAGC,MYO1D,-1.637
UUAGCAUAGAGGUCCUUCC,ACTA2,0.8214

Source: PubChem BioAssay AID1159506 (NCATS, 2015).